Measurements reported in patent US11655492B2, “Activated formylglycine-generating enzymes and methods of producing and using the same” (R.P. Scherer Technologies, LLC, priority 2015, dated 2023).

B1: Sc-FGE: Streptomyces coelicolor formylglycine-generating enzyme, UniProt Q9F3C7, N-terminal hexahistidine tag, expressed in E. coli (protein)
chain: MAVAAPSPAAAAEPGPAARPRSTRGQVRLPGGEFAMGDAFGEGYPADGETPVHTVRLRPFHIDETAVTNARFAAFVKATGHVTDAERFGSSAVFHLVVAAPDADVLGSAAGAPWWINVRGAHWRRPEGARSDITGRPNHPVVHVSWNDATAYARWAGKRLPTEAEWEYAARGGLAGRRYAWGDELTPGGRWRCNIWQGRFPHVNTAEDGHLSTAPVKSYRPNGHGLWNTAGNVWEWCSDWFSPTYYAESPTVDPHGPGTGAARVLRGGSYLCHDSYCNRYRVAARSSNTPDSSSGNLGFRCANDADLTSGSAAE
modifications: left off: small tags and cut ends
notes: Streptomyces coelicolor formylglycine-generating enzyme, UniProt Q9F3C7, N-terminal hexahistidine tag, expressed in E. coli
B2: Sc-FGE + Cu: Sc-FGE preparation after activation with copper (protein, UniProt Q9F3C7 1-314, looked up)
Formylglycine-generating …: B1 chain
modifications: copper-activated
B3: Hs-cFGE: catalytic core of H. sapiens FGE with C-terminal His6 tag (SEQ ID NO. 11), expressed in Hi5 insect cells (protein)
chain: DRSLEANAPGPVPGERQLAHSKMVPIPAGVFTMGTDDPQIKQDGEAPARRVTIDAFYMDAYEVSNTEFEKFVNSTGYLTEVAAAPWWLPVKGANWRHPEGPDSTILHRPDHPVLHVSWNDAVAYCTWAGKRLPTEAEWEYSCRGGLHNRLFPWGNKLQPKGQHYANIWQGEFPVTNTGEDGFQGTAPVDAFPPNGYGLYNIVGNAWEWTSDWWTVHHSVEETLNPKGPPSGKDRVKKGGSYMCHRSYCYRYRCAARSQNTPDSSASNLGFRCAADRLPTMDKGENLYFQGHHHHHH
B4: Hs-FGE + Cu: human FGE preparation after activation with copper (probably Hs-cFGE) (protein, UniProt Q8NBK3 34-374, looked up)
Formylglycine-generating …: SQEAGTGAGAGSLAGSCGCGTPQRPGAHGSSAAAHRYSREANAPGPVPGERQLAHSKMVPIPAGVFTMGTDDPQIKQDGEAPARRVTIDAFYMDAYEVSNTEFEKFVNSTGYLTEAEKFGDSFVFEGMLSEQVKTNIQQAVAAAPWWLPVKGANWRHPEGPDSTILHRPDHPVLHVSWNDAVAYCTWAGKRLPTEAEWEYSCRGGLHNRLFPWGNKLQPKGQHYANIWQGEFPVTNTGEDGFQGTAPVDAFPPNGYGLYNIVGNAWEWTSDWWTVHHSVEETLNPKGPPSGKDRVKKGGSYMCHRSYCYRYRCAARSQNTPDSSASNLGFRCAADRLPTMD
modifications: copper-activated
B5: Hs-FGE: full length wild-type human FGE containing the N-terminal extension and the core, UniProt Q8NBK3 (protein, UniProt Q8NBK3 1-374, looked up)
chain: MAAPALGLVCGRCPELGLVLLLLLLSLLCGAAGSQEAGTGAGAGSLAGSCGCGTPQRPGAHGSSAAAHRYSREANAPGPVPGERQLAHSKMVPIPAGVFTMGTDDPQIKQDGEAPARRVTIDAFYMDAYEVSNTEFEKFVNSTGYLTEAEKFGDSFVFEGMLSEQVKTNIQQAVAAAPWWLPVKGANWRHPEGPDSTILHRPDHPVLHVSWNDAVAYCTWAGKRLPTEAEWEYSCRGGLHNRLFPWGNKLQPKGQHYANIWQGEFPVTNTGEDGFQGTAPVDAFPPNGYGLYNIVGNAWEWTSDWWTVHHSVEETLNPKGPPSGKDRVKKGGSYMCHRSYCYRYRCAARSQNTPDSSASNLGFRCAADRLPTMD
modifications: full-length
notes: full length wild-type human FGE containing the N-terminal extension and the core, UniProt Q8NBK3

Test: ICP-MS copper and calcium content of FGE preparations
Details: for Ca (ratio) / Cu (ratio): mol ratio to protein

Row | Molecule | copper content (after activation in vitro) [Cu/FGE] | copper content (as purified) [Cu/FGE] | Ca (ratio) | Cu (ratio) | copper content (unactivated, as isolated)
1 | B1 | 1.1 | ~0.01 | 2.84 | 0.01 | almost no copper
2 | B2 |  |  | 0.85 | 1.16 | 
3 | B3 |  | 0.34 | 0.48 | 0.34 | 0.35 mol Cu per mol FGE
4 | B4 |  |  | 1.51 | 1.38 | 
5 | B5 | 1.4 |  |  |  | 
